Measurements as given in the supplement of paper PMC12823440, “Inhibitors supercharge kinase turnover through native proteolytic circuits” (Nature, 2025).
Where a name gives a salt, the structure may show the parent alone. This is one part of the list. Hit calls seldom repeat between salt and free forms of one compound.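 Kinases were expressed as nanoluciferase fusions in K562 cells and luminescence was read every 4 h between 2 and 18 h as percent of control, DMSO set to 100% and a positive control to 0%. A time point counts as decreased when the signal drops significantly (2 sigma). The hit call is the authors' own, does not follow from the count of time points alone, and its rule is not shown.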

By UniProt entry, the sequences of proteins in these tests, tags left out. Where a name states a change or a piece, a line headed by the entry shows the natural chain unless it says otherwise.
UniProt P06241, whole entry, looked up: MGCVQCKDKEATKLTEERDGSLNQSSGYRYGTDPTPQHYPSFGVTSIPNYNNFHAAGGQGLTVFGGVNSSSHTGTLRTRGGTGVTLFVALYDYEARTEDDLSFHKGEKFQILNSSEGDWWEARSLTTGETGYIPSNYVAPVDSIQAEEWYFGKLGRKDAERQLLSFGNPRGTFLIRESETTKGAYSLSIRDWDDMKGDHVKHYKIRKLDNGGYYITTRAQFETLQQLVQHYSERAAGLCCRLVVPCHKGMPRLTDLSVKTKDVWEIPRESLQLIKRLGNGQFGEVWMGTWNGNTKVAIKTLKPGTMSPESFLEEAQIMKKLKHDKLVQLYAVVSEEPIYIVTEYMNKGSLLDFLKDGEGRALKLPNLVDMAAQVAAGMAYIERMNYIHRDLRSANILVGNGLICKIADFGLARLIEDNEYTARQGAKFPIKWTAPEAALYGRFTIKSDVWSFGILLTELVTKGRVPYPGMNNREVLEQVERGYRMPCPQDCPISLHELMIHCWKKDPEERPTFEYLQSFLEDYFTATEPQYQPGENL
UniProt P49840: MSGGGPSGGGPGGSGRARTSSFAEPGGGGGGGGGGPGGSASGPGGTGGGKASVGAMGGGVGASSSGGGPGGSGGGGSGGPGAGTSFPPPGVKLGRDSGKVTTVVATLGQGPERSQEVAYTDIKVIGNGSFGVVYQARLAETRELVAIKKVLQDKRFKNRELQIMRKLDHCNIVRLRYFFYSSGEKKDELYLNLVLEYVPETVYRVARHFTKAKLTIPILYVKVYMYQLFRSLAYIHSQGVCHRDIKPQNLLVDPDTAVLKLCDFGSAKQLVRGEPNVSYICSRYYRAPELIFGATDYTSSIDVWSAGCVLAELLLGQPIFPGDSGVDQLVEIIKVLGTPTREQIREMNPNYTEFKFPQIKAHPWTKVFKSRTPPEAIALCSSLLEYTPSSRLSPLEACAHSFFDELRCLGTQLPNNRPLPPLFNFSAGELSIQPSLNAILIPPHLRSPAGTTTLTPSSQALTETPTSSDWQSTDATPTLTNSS

molecular target: FYN (UniProt P06241); experiment: kinase-Nluc reporter destabilization hit call (1 = scored as downregulated) (binary); higher = compound decreases kinase abundance; details: K562; 2-18 h

kinase-Nluc reporter destabilization hit call, inactive:
CNC(=O)c1c(F)cccc1Nc1nc(Nc2cc3c(cc2OC)CCN3C(=O)CN(C)C)nc2[nH]ccc12 (10 µM) 0, COc1ccc(-c2ccc3c(N4CCOCC4)nc(N4C[C@@H](C)O[C@@H](C)C4)nc3n2)cc1CO (2.5 µM) 0, CC1=C(C(=O)O)N2C(=O)[C@@H](NC(=O)[C@H](N)C3=CCC=CC3)[C@H]2SC1 [Cephradine] (10 µM) 0, Cc1c(-c2c(F)cc(C(N)=O)c3[nH]c4c(c23)CC[C@H](C(C)(C)O)C4)cccc1-n1c(=O)c2cccc(F)c2n(C)c1=O (2.5 µM) 0, Cn1ncc(Cl)c1-c1cc(C(=O)N[C@H](CN)Cc2ccc(F)c(F)c2)oc1Cl [Uprosertib] (10 µM) 0, Cc1cccc(Oc2cnc(=O)[nH]c2)c1 [Tolimidone] (10 µM) 0, C[C@@H]1CCN(C(=O)CC#N)C[C@@H]1N(C)c1ncnc2[nH]ccc12 [Tofacitinib (citrate)] (10 µM) 0, COc1ccc(OC)c(C2C(C#N)=C(N)Oc3n[nH]c(-c4ccc5ccccc5c4)c32)c1 (stereo not drawn) (10 µM) 0, C=C1C(=O)O[C@H]2C[C@H](C)C(/C=C/C(C)=O)=CC[C@H]12 [Xanthatin] (2.5 µM) 0, C[C@]1(O)CCN(c2nc(N3C[C@H](O)[C@@H](O)C3)cc(C(F)(F)F)c2C#N)C1 (10 µM) 0, Cc1cc(Nc2ncnc3ccc(NC4=NC(C)(C)CO4)cc23)ccc1Oc1ccn2ncnc2c1 [Tucatinib (hemiethanolate)] (2.5 µM) 0, CCN1CCN(Cc2ccc(Nc3ncc(F)c(-c4cc(F)c5nc(C)n(C(C)C)c5c4)n3)nc2)CC1 [Abemaciclib (methanesulfonate)] (10 µM) 0, Cc1cc(=O)oc2c(C=O)c(O)ccc12 (10 µM) 0, CC1(C)C(O[C@@H]2OC[C@@H](O)[C@H](O)[C@H]2O)CC[C@]23CC24CC[C@]2(C)[C@@H]([C@@]5(C)CC[C@@H](C(C)(C)O)O5)[C@H](O)C[C@@]2(C)C4C[C@@H](O[C@@H]2O[C@H](CO)[C@@H](O)[C@H](O)[C@H]2O)C13 (stereo partly drawn) [Astragaloside IV] (10 µM) 0, CC[C@@H](Oc1nc(Oc2cc(C)cc(-c3cccc(CN)c3)c2)c(F)cc1F)C(=O)O (10 µM) 0

molecular target: GSK3A (UniProt P49840); experiment: as above; details: K562; 2-18 h

kinase-Nluc reporter destabilization hit call, inactive:
Cc1[nH]c(/C=C2\C(=O)Nc3ccccc32)c(C)c1CCC(=O)O [(Z)-Orantinib] (10 µM) 0, NC(=O)c1ccc(-c2nc(-c3ccc4c(c3)OCCO4)c(-c3ccccn3)[nH]2)cc1 (10 µM) 0, CCNc1nc(Nc2cc(F)c(C(=O)N3CCOCC3)cc2OC)ncc1C(F)(F)F [GNE-7915 (tosylate)] (10 µM) 0, Cc1cc(O)c2c(c1)C(=O)c1cc(O)cc(O)c1C2=O [Emodin] (10 µM) 0, Cc1ccc(C(=O)Nc2ccc(Oc3cc4cnn(C)c4cc3-c3cn[nH]c3)c(F)c2)c(=O)n1-c1ccc(F)cc1 [Merestinib dihydrochloride] (2.5 µM) 0, C=CC(=O)Nc1cc(C)ccc1Nc1nc(Nc2cc(OC)ncc2C)ncc1C(F)(F)F (10 µM) 0, Oc1cc(O)c2cc(O)c(-c3cc(O)c(O)c(O)c3)[o+]c2c1 [Delphinidin (chloride)] (10 µM) 0, O=C1NC(=O)/C(=C\c2cccc(C(F)(F)F)c2)S1 (2.5 µM) 0, Cc1nc2sccn2c(=O)c1CCN1CCC(=C(c2ccccc2)c2ccc(F)cc2)CC1 (10 µM) 0, CCc1cc2c(cc1N1CCC(N3CCOCC3)CC1)C(C)(C)c1[nH]c3cc(C#N)ccc3c1C2=O [Alectinib (Hydrochloride)] (2 µM) 0, FC(F)(c1ccc2ncccc2c1)c1nnc2ccc(-c3ccncc3)nn12 (10 µM) 0, O=C(N/N=C/c1coc2ccccc2c1=O)c1cccnc1 (10 µM) 0, O=C(Nc1ccc(CN2CCOCC2)cc1)c1ccc(-c2cccc(Cl)c2)o1 (10 µM) 0, NC(=O)c1nnc(N[C@@H]2CCCC[C@@H]2N)nc1Nc1cccc2cc[nH]c12 (10 µM) 0, COc1cc2ncc(-c3ccccc3)nc2cc1OC [Tyrphostin AG1296] (10 µM) 0, O=C(NOCC(O)CO)c1cc(Br)c(F)c(F)c1Nc1ccc(I)cc1F (stereo not drawn) (2.5 µM) 0, Cn1cnc(Cn2ccc3ccc(CNCc4[nH]c5ccccc5c4[C@H]4NC(=O)c5ccc(O)cc54)cc32)c1 (10 µM) 0, CC(=O)c1c(C)cc2cccc(O)c2c1O [Nepodin] (10 µM) 0, COc1cc(Nc2ncc(F)c(Nc3ccc4c(n3)N(COP(=O)(O)O)C(=O)C(C)(C)O4)n2)cc(OC)c1OC [Fostamatinib (disodium hexahydrate)] (10 µM) 0, Cc1ccccc1-c1c2nccc(-c3ccc(F)cc3F)c2cc[n+]1[O-] (10 µM) 0, Cn1nccc1Nc1nccc(-c2ccn([C@H](CO)c3ccc(Cl)c(F)c3)c(=O)c2)n1 [Ravoxertinib hydrochloride] (10 µM) 0, Nc1nc(F)nc2c1ncn2[C@@H]1O[C@H](CO)[C@@H](O)[C@@H]1O [Fludarabine] (10 µM) 0, O=C(CSC1=NCCN1)NC1CCCCCC1 [ICCB-19 (hydrochloride)] (2.5 µM) 0, CNC(=O)c1c(F)cccc1Nc1nc(Nc2cc3c(cc2OC)CCN3C(=O)CN(C)C)nc2[nH]ccc12 (10 µM) 0, COc1ccc(-c2ccc3c(N4CCOCC4)nc(N4C[C@@H](C)O[C@@H](C)C4)nc3n2)cc1CO (2.5 µM) 0, CC1=C(C(=O)O)N2C(=O)[C@@H](NC(=O)[C@H](N)C3=CCC=CC3)[C@H]2SC1 [Cephradine] (10 µM) 0, Cc1c(-c2c(F)cc(C(N)=O)c3[nH]c4c(c23)CC[C@H](C(C)(C)O)C4)cccc1-n1c(=O)c2cccc(F)c2n(C)c1=O (2.5 µM) 0, Cn1ncc(Cl)c1-c1cc(C(=O)N[C@H](CN)Cc2ccc(F)c(F)c2)oc1Cl [Uprosertib] (10 µM) 0, Cc1cccc(Oc2cnc(=O)[nH]c2)c1 [Tolimidone] (10 µM) 0, C[C@@H]1CCN(C(=O)CC#N)C[C@@H]1N(C)c1ncnc2[nH]ccc12 [Tofacitinib (citrate)] (10 µM) 0, COc1ccc(OC)c(C2C(C#N)=C(N)Oc3n[nH]c(-c4ccc5ccccc5c4)c32)c1 (stereo not drawn) (10 µM) 0, C=C1C(=O)O[C@H]2C[C@H](C)C(/C=C/C(C)=O)=CC[C@H]12 [Xanthatin] (2.5 µM) 0, C[C@]1(O)CCN(c2nc(N3C[C@H](O)[C@@H](O)C3)cc(C(F)(F)F)c2C#N)C1 (10 µM) 0, Cc1cc(Nc2ncnc3ccc(NC4=NC(C)(C)CO4)cc23)ccc1Oc1ccn2ncnc2c1 [Tucatinib (hemiethanolate)] (2.5 µM) 0, CCN1CCN(Cc2ccc(Nc3ncc(F)c(-c4cc(F)c5nc(C)n(C(C)C)c5c4)n3)nc2)CC1 [Abemaciclib (methanesulfonate)] (10 µM) 0, Cc1cc(=O)oc2c(C=O)c(O)ccc12 (10 µM) 0, CC1(C)C(O[C@@H]2OC[C@@H](O)[C@H](O)[C@H]2O)CC[C@]23CC24CC[C@]2(C)[C@@H]([C@@]5(C)CC[C@@H](C(C)(C)O)O5)[C@H](O)C[C@@]2(C)C4C[C@@H](O[C@@H]2O[C@H](CO)[C@@H](O)[C@H](O)[C@H]2O)C13 (stereo partly drawn) [Astragaloside IV] (10 µM) 0, CC[C@@H](Oc1nc(Oc2cc(C)cc(-c3cccc(CN)c3)c2)c(F)cc1F)C(=O)O (10 µM) 0
